# Experimental data: PubChem BioAssay AID1224826 (NIAID, 2016)
# Assay: 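Regulators of Tlr4 signalling leading to Tnf-alpha expression in macrophages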 (primary screen)
# Cells: RAW264.7 G9 macrophages from mouse bearing reporters for p65 (GFP) and the Tnf promoter (mCherry)
# Reagents: siRNA pool against mouse genes, 100 nM
# Timing: 16 h of LPS stimulation, after 2 days of siRNA transfection
# Treatment: bacterial lipopolysaccharide (Salmonella minnesota R595), 10 ng/ml
# Read-out: 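Nuclear mCherry signal of the Tnf promoter reporter measured by imaging after background removal, scaled to each plate median and turned into robust z-scores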
# Reading the numbers: Tnf reporter robust z-score: higher = stronger Tnf promoter reporter signal after LPS; Tnf reporter intensity: higher = stronger Tnf promoter reporter signal
# Hit rule: 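Called active when robust z-score is at most -1.3, matching the median of the Tlr4 knock-down control, or over 3; control wells and wells with under 50 cells never active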
# Meaning of the calls: active = Tnf reporter clearly lowered or raised; inactive = no clear change in Tnf reporter
# Here is an unselected part of about 17,000 deposited reagents. About 1,110 of them (6.6%) count as active. 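Active means lowered or raised reporter signal; replicate intensities are raw and not normalised per plate.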
gene knocked down,PubChem SID,Tnf reporter robust z-score,fewer than 50 cells in well,"Tnf reporter intensity, replicate 1","Tnf reporter intensity, replicate 2",Call
Dynlt5 (dynein light chain Tctex-type 5),SID315472974,5.95,enough cells in well,626,158,active
Thnsl1 (threonine synthase-like 1 (bacterial)),SID315477565,0.13,enough cells in well,206,164,inactive
Arhgap20 (Rho GTPase activating protein 20),SID315479788,-0.23,enough cells in well,166,145,inactive
Jph3 (junctophilin 3),SID315471765,0.94,enough cells in well,312,201,inactive
Tusc3 (tumor suppressor candidate 3),SID315475690,0.3,enough cells in well,221,291,inactive
Pak3 (p21 (RAC1) activated kinase 3),SID315468384,-1.02,enough cells in well,119,106,inactive
Tfap4 (transcription factor AP4),SID315475809,-0.53,enough cells in well,140,143,inactive
Srsf19 (serine and arginine rich splicing factor 19),SID315479818,,fewer than 50 cells per well; well left out of calls,136,70.6,inactive
Mrpl12 (mitochondrial ribosomal protein L12),SID315471431,0.54,enough cells in well,283,117,inactive
Fbxl7 (F-box and leucine-rich repeat protein 7),SID315481129,3.54,enough cells in well,406,359,active
Rin1 (Ras and Rab interactor 1),SID315478441,-0.16,enough cells in well,327,171,inactive
Pcsk7 (proprotein convertase subtilisin/kexin type 7),SID315468420,0.3,enough cells in well,280,190,inactive
Zfx (zinc finger protein X-linked),SID315470144,-0.37,enough cells in well,191,213,inactive
Actn3 (actinin alpha 3),SID315465274,0.78,enough cells in well,232,192,inactive
Krt12 (keratin 12),SID315480775,0.17,enough cells in well,244,165,inactive
Ppm1h (protein phosphatase 1H (PP2C domain containing)),SID315481092,-0.16,enough cells in well,141,158,inactive
Epb41 (erythrocyte membrane protein band 4.1),SID315480866,0.79,enough cells in well,277,306,inactive
Prss27 (serine protease 27),SID315477786,1.35,enough cells in well,273,186,inactive
Or51b6b (olfactory receptor family 51 subfamily B member 6B),SID315480718,,fewer than 50 cells per well; well left out of calls,52.8,84,inactive
Lrrc19 (leucine rich repeat containing 19),SID315476203,3.76,enough cells in well,392,444,active
Sec14l1 (SEC14-like lipid binding 1),SID315474865,0.32,enough cells in well,285,259,inactive
"Prkca (protein kinase C, alpha)",SID315468538,,fewer than 50 cells per well; well left out of calls,102,86.8,inactive
Unc93a (unc-93 homolog A),SID315481765,,fewer than 50 cells per well; well left out of calls,54.2,50.4,inactive
"Ap1m2 (adaptor protein complex AP-1, mu 2 subunit)",SID315465435,-1.08,enough cells in well,141,109,inactive
Adm2 (adrenomedullin 2),SID315478295,1.28,enough cells in well,360,205,inactive
Gss (glutathione synthetase),SID315467053,-0.75,enough cells in well,142,220,inactive
Or4f60 (olfactory receptor family 4 subfamily F member 60),SID315479953,-0.36,enough cells in well,190,83.7,inactive
Tacr3 (tachykinin receptor 3),SID315469569,-0.4,enough cells in well,240,74.7,inactive
"Zim1 (zinc finger, imprinted 1)",SID315470153,,fewer than 50 cells per well; well left out of calls,84.6,67.7,inactive
Tm4sf5 (transmembrane 4 superfamily member 5),SID315475157,,fewer than 50 cells per well; well left out of calls,51.8,72.8,inactive
Sh3rf3 (SH3 domain containing ring finger 3),SID315479341,-0.79,enough cells in well,114,48.8,inactive
Nkain1 (Na+/K+ transporting ATPase interacting 1),SID315472868,,fewer than 50 cells per well; well left out of calls,216,80.5,inactive
Tcf23 (transcription factor 23),SID315473918,,fewer than 50 cells per well; well left out of calls,91.4,68.9,inactive
Tbx1 (T-box 1),SID315469593,-1.29,enough cells in well,135,31.1,inactive
Shbg (sex hormone binding globulin),SID315469220,1.94,enough cells in well,473,347,inactive
Ipo7 (importin 7),SID315479097,-0.62,enough cells in well,150,147,inactive
"Cln3 (CLN3 lysosomal/endosomal transmembrane protein, battenin)",SID315466002,0.1,enough cells in well,279,191,inactive
Msh5 (mutS homolog 5),SID315467989,0.69,enough cells in well,317,259,inactive
Spice1 (spindle and centriole associated protein 1),SID315477743,0.01,enough cells in well,241,120,inactive
"Chrna3 (cholinergic receptor, nicotinic, alpha polypeptide 3)",SID315476937,-1.47,enough cells in well,123,106,active

Part of the list above in another layout:
Gss (glutathione synthetase) [SID315467053] — Tnf reporter robust z-score: -0.75; fewer than 50 cells in well: enough cells in well; Tnf reporter intensity, replicate 1: 142; Tnf reporter intensity, replicate 2: 220; Call: inactive
Or4f60 (olfactory receptor family 4 subfamily F member 60) [SID315479953] — Tnf reporter robust z-score: -0.36; fewer than 50 cells in well: enough cells in well; Tnf reporter intensity, replicate 1: 190; Tnf reporter intensity, replicate 2: 83.7; Call: inactive
Tacr3 (tachykinin receptor 3) [SID315469569] — Tnf reporter robust z-score: -0.4; fewer than 50 cells in well: enough cells in well; Tnf reporter intensity, replicate 1: 240; Tnf reporter intensity, replicate 2: 74.7; Call: inactive
Zim1 (zinc finger, imprinted 1) [SID315470153] — fewer than 50 cells in well: fewer than 50 cells per well; well left out of calls; Tnf reporter intensity, replicate 1: 84.6; Tnf reporter intensity, replicate 2: 67.7; Call: inactive
Tm4sf5 (transmembrane 4 superfamily member 5) [SID315475157] — fewer than 50 cells in well: fewer than 50 cells per well; well left out of calls; Tnf reporter intensity, replicate 1: 51.8; Tnf reporter intensity, replicate 2: 72.8; Call: inactive
